Chains of the proteins cited; added tags and fusions are not shown. Lines headed by an entry give the natural chain unless they say otherwise; changes in a name come on top.
UniProt Q6NXK8: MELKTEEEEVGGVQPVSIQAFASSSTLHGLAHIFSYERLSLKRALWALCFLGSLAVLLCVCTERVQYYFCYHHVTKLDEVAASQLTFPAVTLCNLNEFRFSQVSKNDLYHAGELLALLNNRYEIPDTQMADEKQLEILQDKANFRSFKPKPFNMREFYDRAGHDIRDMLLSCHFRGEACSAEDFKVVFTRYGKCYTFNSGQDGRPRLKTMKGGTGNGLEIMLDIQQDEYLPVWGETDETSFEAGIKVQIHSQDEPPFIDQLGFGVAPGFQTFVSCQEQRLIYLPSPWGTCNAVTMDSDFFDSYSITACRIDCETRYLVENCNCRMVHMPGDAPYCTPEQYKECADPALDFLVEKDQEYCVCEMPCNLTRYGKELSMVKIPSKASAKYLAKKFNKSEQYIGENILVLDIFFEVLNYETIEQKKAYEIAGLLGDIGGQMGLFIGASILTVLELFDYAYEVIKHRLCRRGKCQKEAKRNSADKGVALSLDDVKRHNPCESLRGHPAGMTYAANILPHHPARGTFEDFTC
UniProt P18708: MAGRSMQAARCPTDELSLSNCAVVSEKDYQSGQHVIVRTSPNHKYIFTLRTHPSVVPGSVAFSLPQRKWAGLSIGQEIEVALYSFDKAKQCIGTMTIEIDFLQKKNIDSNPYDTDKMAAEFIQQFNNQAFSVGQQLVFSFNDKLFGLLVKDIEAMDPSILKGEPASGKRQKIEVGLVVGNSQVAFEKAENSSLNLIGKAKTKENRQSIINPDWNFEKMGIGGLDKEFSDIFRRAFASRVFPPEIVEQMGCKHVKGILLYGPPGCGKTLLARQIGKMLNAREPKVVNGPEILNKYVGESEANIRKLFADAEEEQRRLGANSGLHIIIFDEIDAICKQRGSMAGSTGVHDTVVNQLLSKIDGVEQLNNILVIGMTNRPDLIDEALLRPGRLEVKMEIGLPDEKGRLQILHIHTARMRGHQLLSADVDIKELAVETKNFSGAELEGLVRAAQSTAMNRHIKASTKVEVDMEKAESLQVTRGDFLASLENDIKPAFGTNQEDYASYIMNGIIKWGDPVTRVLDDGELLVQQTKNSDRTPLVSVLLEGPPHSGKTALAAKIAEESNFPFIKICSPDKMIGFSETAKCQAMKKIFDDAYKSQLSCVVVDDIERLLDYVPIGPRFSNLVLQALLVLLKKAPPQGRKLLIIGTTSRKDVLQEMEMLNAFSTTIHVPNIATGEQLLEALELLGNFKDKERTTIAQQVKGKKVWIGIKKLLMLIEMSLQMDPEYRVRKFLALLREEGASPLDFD
UniProt A0A8C2QHS8: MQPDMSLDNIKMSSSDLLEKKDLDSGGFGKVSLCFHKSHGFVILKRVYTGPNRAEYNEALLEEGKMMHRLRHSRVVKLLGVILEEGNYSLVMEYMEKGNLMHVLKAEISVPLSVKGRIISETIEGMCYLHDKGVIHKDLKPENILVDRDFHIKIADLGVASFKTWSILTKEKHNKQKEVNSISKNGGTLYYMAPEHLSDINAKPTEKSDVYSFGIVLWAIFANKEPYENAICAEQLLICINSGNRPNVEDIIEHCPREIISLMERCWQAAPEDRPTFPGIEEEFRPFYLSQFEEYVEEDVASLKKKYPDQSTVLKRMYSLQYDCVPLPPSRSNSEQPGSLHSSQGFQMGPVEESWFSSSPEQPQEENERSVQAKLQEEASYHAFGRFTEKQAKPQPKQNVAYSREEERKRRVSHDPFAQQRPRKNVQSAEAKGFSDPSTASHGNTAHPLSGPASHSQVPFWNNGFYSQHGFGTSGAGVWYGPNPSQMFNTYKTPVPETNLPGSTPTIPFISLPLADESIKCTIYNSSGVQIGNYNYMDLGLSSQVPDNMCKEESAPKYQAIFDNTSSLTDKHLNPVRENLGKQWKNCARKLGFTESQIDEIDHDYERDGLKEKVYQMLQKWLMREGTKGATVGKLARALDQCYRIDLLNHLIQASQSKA

In PMC6981194:

Molecular target: ASIC1a E/A mutant (all four glutamates E6EEE9 mutated into alanines) (not stated (human or mouse cDNA cloned)) (UniProt Q6NXK8)
Experiment: co-IP; lysates of transfected CHO cells exposed to pH 7.4 or pH 6.0; anti-ASIC1a antibody, Protein G agarose, 4 °C; lysis buffer 20 mM Tris-Cl pH 7.4, 150 mM NaCl, 1% Triton X-100; blots for RIPK1 and NSF

binding	Substance
binds	N-ethylmaleimide-sensitive fusion ATPase (NSF) in CHO cells (from UniProt P18708 1-744)
binds	receptor-interacting serine/threonine-protein kinase 1 (RIPK1) in CHO cells (from UniProt A0A8C2QHS8 1-659)

These are yes or no findings as the source states them, for the method shown. In cells and extracts the contact can be indirect. A result given as binding can be weak or reduced; the word gives no strength.
